{"source": "the supplement of paper PMC5949888", "note": "Most values lie at the floor of the assay. Slopes are relative: functional sequences can read slightly below zero.", "data": [{"system": "Saccharomyces cerevisiae PS128 hsf1 delta, HSF1(1-493) fusion", "assay": "growth estimate (transactivation domain function in HSF1 fusion, heat-shock survival) (a.u. (slope of normalised read count over time)); higher = stronger growth at 37°C, i.e. more transactivation activity", "details": "library: random library", "method": "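Random 60-nt DNA library encoding peptides of up to 20 aa, fused to the C-terminus of yeast HSF1 residues 1-493 (C-terminal TAD deleted) and expressed from the native HSF1 promoter on a CEN plasmid in hsf1-deleted S. cerevisiae PS128. Cells were selected at 37°C on -trp 5-FOA plates for 0, 2, 4, 6 and 8 days and amplicons were sequenced. Growth estimate is the slope of a robust linear fit of total-sum-normalised read counts (normalised to the first time point) over time, using at least 2 replicates. Sequences are classed functional (TAD activity) above a threshold of -0.13, set from stop-codon control sequences.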", "values": [{"substance": "VSGGVAEKDD", "growth estimate": "< -0.25"}, {"substance": "RTFAALFPRGSVLVPCKYLA", "growth estimate": "< -0.25"}, {"substance": "PIARPAYNRSFGEITIFRYP", "growth estimate": "< -0.25"}, {"substance": "TCCKVTERVLRSVSIGAVPD", "growth estimate": "< -0.25"}, {"substance": "GTRRETYSKDVGWLICGVAL", "growth estimate": "< -0.25"}, {"substance": "WDFPLKHRL", "growth estimate": "< -0.25"}, {"substance": "DVLTH", "growth estimate": "< -0.25"}, {"substance": "HVGRYR", "growth estimate": "< -0.25"}, {"substance": "VVRIHLH", "growth estimate": "< -0.25"}, {"substance": "FRPGSGVG", "growth estimate": "< -0.25"}, {"substance": "AISQPGIYTHSRNTRSVPLG", "growth estimate": "< -0.25"}, {"substance": "KILANV", "growth estimate": -0.245}, {"substance": "RSTE", "growth estimate": "< -0.25"}, {"substance": "VYVPERASPPDNRGLFLGCY", "growth estimate": "< -0.25"}, {"substance": "ISNAVERR", "growth estimate": "< -0.25"}, {"substance": "NSPLRW", "growth estimate": "< -0.25"}, {"substance": "STK", "growth estimate": "< -0.25"}, {"substance": "MPESVSGFVGGTGSVGATVP", "growth estimate": "< -0.25"}, {"substance": "SYTTTLDPSVLIERQQPRFY", "growth estimate": "< -0.25"}, {"substance": "TINTVHGLYGFAPR", "growth estimate": "< -0.25"}, {"substance": "PTTKIAESFYQIRSHYQMLH", "growth estimate": "< -0.25"}, {"substance": "RYSSVCATESFFGLD", "growth estimate": "< -0.25"}, {"substance": "AMYDRFRRRSGQSAR", "growth estimate": "< -0.25"}, {"substance": "SKKLSPSASFGGTRWNCRAL", "growth estimate": "< -0.25"}, {"substance": "ASDNPATEIRPRNYRPGLVR", "growth estimate": "< -0.25"}, {"substance": "HIQSPYPGSPWSLGYISL", "growth estimate": -0.114}, {"substance": "MVVYKASVCDFCQIHTRSGP", "growth estimate": "< -0.25"}, {"substance": "GASGVAGGDAISEARFGQ", "growth estimate": "< -0.25"}, {"substance": "GFSLFE", "growth estimate": "< -0.25"}, {"substance": "GLVT", "growth estimate": "< -0.253"}, {"substance": "AGLPTPISTPLGTRRSRALL", "growth estimate": "< -0.25"}, {"substance": "NHFI", "growth estimate": "< -0.25"}, {"substance": "DRWPPIVHFDELGDGGYDPQ", "growth estimate": "< -0.25"}, {"substance": "RPHIPWGEDRRLMSIPSGEW", "growth estimate": "< -0.25"}, {"substance": "ADVVSSRNQRKRPPQNISNT", "growth estimate": "< -0.25"}, {"substance": "LHTAHYHDWRAGTGIMWTG", "growth estimate": "< -0.25"}, {"substance": "VQRTASATTVNLFTSVCHLR", "growth estimate": "< -0.25"}, {"substance": "GEPLYSMKARVGTDRHSL", "growth estimate": "< -0.25"}, {"substance": "PPTL", "growth estimate": "< -0.25"}, {"substance": "LVPTC", "growth estimate": 0.207}, {"substance": "NFTGGVCSSAPLTGPIVESV", "growth estimate": "< -0.25"}, {"substance": "TRCT", "growth estimate": "< -0.25"}, {"substance": "QRTDMGMLGAR", "growth estimate": "< -0.25"}, {"substance": "GETRIGGTSRTSVTLSSDRY", "growth estimate": "< -0.25"}, {"substance": "TGFEDPRSCRATHRGCREAN", "growth estimate": "< -0.25"}, {"substance": "VLNNVIIFRNGLCCVHRSGL", "growth estimate": "< -0.25"}, {"substance": "SGRPGVAPRVGCTTKSRLWH", "growth estimate": "< -0.25"}, {"substance": "VAGIIDVGGGRLRSGTMQCR", "growth estimate": "< -0.25"}, {"substance": "FILCLTDDIRLFGKEPRSGA", "growth estimate": "< -0.25"}, {"substance": "TRFENL", "growth estimate": "< -0.25"}, {"substance": "CSSLRAGASGLPPVLARSRQ", "growth estimate": -0.2}, {"substance": "IGTLSTPPSSGTLHRVGGYS", "growth estimate": "< -0.25"}, {"substance": "CTGLTRVVFVYVRRPETSA", "growth estimate": "< -0.25"}, {"substance": "RRPVNRPAQDY", "growth estimate": "< -0.25"}, {"substance": "VSTHTQWGQLDGQIGEKLT", "growth estimate": -0.231}, {"substance": "SEGQAPYRAGRPVELGNGKP", "growth estimate": "< -0.25"}, {"substance": "ITGSGGLSGLMATRVGSGRP", "growth estimate": "< -0.25"}, {"substance": "CARQHPVRRGLSTV", "growth estimate": "< -0.25"}, {"substance": "IQRPSGPCLANRPLYYNYVG", "growth estimate": -0.228}, {"substance": "WHRNENKESLYALIGSCT", "growth estimate": "< -0.253"}, {"substance": "YNVAGTIR", "growth estimate": "< -0.25"}, {"substance": "RINLGLEFAFTFLELTVLYR", "growth estimate": "< -0.25"}, {"substance": "RGLASTVFRVSKGPLIHKSM", "growth estimate": "< -0.25"}, {"substance": "FCRRTAVWPRPYGNWTRGAE", "growth estimate": "< -0.25"}, {"substance": "RYVGGKQASTATLGCIDFLL", "growth estimate": "< -0.25"}, {"substance": "PHG", "growth estimate": "< -0.25"}, {"substance": "LAMCRKYRLSFR", "growth estimate": "< -0.25"}, {"substance": "RKHQLGSTMAGVPDHYAIRF", "growth estimate": "< -0.25"}, {"substance": "RGAGGSFSSFYGDPRNPSNA", "growth estimate": "< -0.25"}, {"substance": "SGYAIGLMTSRNISKFSQCA", "growth estimate": "< -0.25"}, {"substance": "ASRIESWPIYNLRMLSAQIT", "growth estimate": "< -0.25"}, {"substance": "SSFAIAPFLSKVAMRYSLRG", "growth estimate": "< -0.25"}, {"substance": "GCGVF", "growth estimate": "< -0.25"}, {"substance": "AGEIYASDKRALSSNPLLGR", "growth estimate": -0.241}, {"substance": "RQCVVKLRWIKQMLGPVHLR", "growth estimate": "< -0.25"}, {"substance": "GATGRALLVTGRAC", "growth estimate": "< -0.25"}, {"substance": "IIPSGTFRLRVGSGVGKRES", "growth estimate": "< -0.25"}, {"substance": "PEES", "growth estimate": "< -0.25"}, {"substance": "IRSVGGANEGY", "growth estimate": "< -0.25"}, {"substance": "PSALSSLWGANPRRSLGVHF", "growth estimate": "< -0.25"}, {"substance": "SSLAVSYMWGATRPF", "growth estimate": "< -0.25"}, {"substance": "SSKHVILPRS", "growth estimate": "< -0.25"}, {"substance": "ARGSGYAAARSRALGIPDGV", "growth estimate": "< -0.25"}, {"substance": "HFRTFTDNEWRLKSSL", "growth estimate": "< -0.25"}, {"substance": "PPLT", "growth estimate": "< -0.25"}, {"substance": "ARSTYRRIAAGSFIAAKML", "growth estimate": "< -0.25"}, {"substance": "IVCI", "growth estimate": "< -0.25"}, {"substance": "ELRSVINPSYY", "growth estimate": "< -0.25"}, {"substance": "LSQNCSLAKQTLFFAGQPAI", "growth estimate": -0.248}, {"substance": "CSVVGVWNGSLTTNQIRVIW", "growth estimate": "< -0.25"}, {"substance": "SLYIGVAVESR", "growth estimate": "< -0.25"}, {"substance": "SRGAQAT", "growth estimate": "< -0.25"}, {"substance": "CRTDPPQTSCYVG", "growth estimate": "< -0.25"}, {"substance": "QMRPIHRNVMAMGIERPRRT", "growth estimate": "< -0.25"}, {"substance": "NYFRAVCVVLRNIYTVVSGV", "growth estimate": "< -0.25"}, {"substance": "FDAAAIIQSAKLSLGHGDSC", "growth estimate": "< -0.25"}, {"substance": "FAEVAHGSRTIAGSIA", "growth estimate": "< -0.25"}, {"substance": "GARSLGR", "growth estimate": "< -0.25"}, {"substance": "YIAPSSLTVILRPLPTLAAC", "growth estimate": "< -0.25"}, {"substance": "RCPPHLRSQWEKLCVYGKTT", "growth estimate": "< -0.25"}, {"substance": "PPGFWVEKRCLK", "growth estimate": "< -0.25"}, {"substance": "EESLP", "growth estimate": "< -0.25"}, {"substance": "PVNVICGAGSQKSLDIPEGI", "growth estimate": -0.245}, {"substance": "TRQRMYQIHL", "growth estimate": "< -0.25"}, {"substance": "PSFATGTCRCPPSFGRSTWM", "growth estimate": "< -0.25"}, {"substance": "TEFISMPRVPHRF", "growth estimate": -0.0864}, {"substance": "GERYEPT", "growth estimate": "< -0.25"}, {"substance": "WSQNTGVG", "growth estimate": "< -0.25"}, {"substance": "LPRRIALTRQQSAANRGYKN", "growth estimate": "< -0.25"}, {"substance": "RMRCECCEREIESYGGRARS", "growth estimate": "< -0.25"}, {"substance": "GRLRRPRTLSLIFGE", "growth estimate": "< -0.25"}, {"substance": "NTCSGSLGPTP", "growth estimate": "< -0.25"}, {"substance": "PYVQRILALIDTWFTEFVAN", "growth estimate": "< -0.25"}, {"substance": "DPPSTRPQ", "growth estimate": "< -0.25"}, {"substance": "TTKCV", "growth estimate": "< -0.25"}, {"substance": "KAIRSLF", "growth estimate": "< -0.25"}, {"substance": "RTKSVALLWRGS", "growth estimate": "< -0.25"}, {"substance": "FKTGRQCR", "growth estimate": "< -0.25"}, {"substance": "LETPKGLCAA", "growth estimate": -0.246}, {"substance": "RMFQIIGNGTAFGGSIGHPP", "growth estimate": "< -0.25"}, {"substance": "VAIEDRGLSYVSCIISRSVG", "growth estimate": "< -0.25"}, {"substance": "IFHCLLEEYLTLARAGSRAI", "growth estimate": "< -0.25"}, {"substance": "YISAVTPKCRCCRRLIVSTE", "growth estimate": "< -0.25"}, {"substance": "PWVIDPFGWEQENRAN", "growth estimate": -0.247}, {"substance": "RTRAVVITC", "growth estimate": "< -0.25"}, {"substance": "VSTIFFPWTAKIVASANPLK", "growth estimate": "< -0.25"}, {"substance": "ERNNLNVGRSGMFASLGWNR", "growth estimate": "< -0.25"}, {"substance": "PPDSSVTAPMRKVSLRFSRG", "growth estimate": "< -0.25"}, {"substance": "VSPG", "growth estimate": "< -0.25"}, {"substance": "VLRVLVTGTTNKCPIECSSA", "growth estimate": "< -0.25"}, {"substance": "ADFRLSKLRIFRHWVPAA", "growth estimate": "< -0.25"}, {"substance": "STTGIQGR", "growth estimate": "< -0.25"}, {"substance": "VITTFLLCVNIVAC", "growth estimate": "< -0.25"}, {"substance": "HKHAK", "growth estimate": "< -0.25"}, {"substance": "TAFDTWGS", "growth estimate": "< -0.25"}, {"substance": "VASRTL", "growth estimate": "< -0.25"}, {"substance": "KTNALNTKTIRSGRDREPPQ", "growth estimate": "< -0.25"}, {"substance": "FLPSKHID", "growth estimate": -0.171}, {"substance": "PKASFKVWGIRLRTTIHQLG", "growth estimate": "< -0.25"}, {"substance": "SIYFGQGRDRGCAWYIAQVS", "growth estimate": "< -0.25"}, {"substance": "ISGD", "growth estimate": "< -0.25"}, {"substance": "QRRCSWRRRRFRGQGFKPV", "growth estimate": "< -0.25"}, {"substance": "SQAQRRMSDTPLVTLEVPIS", "growth estimate": "< -0.25"}, {"substance": "GVQILRV", "growth estimate": "< -0.25"}, {"substance": "LLGPF", "growth estimate": "< -0.25"}, {"substance": "TKIGTSVSDNCCEKISRSSK", "growth estimate": "< -0.25"}, {"substance": "MLE", "growth estimate": "< -0.25"}, {"substance": "CTL", "growth estimate": "< -0.25"}, {"substance": "EVLELS", "growth estimate": "< -0.25"}, {"substance": "VVSLMGHTKQLDYSSNKLPA", "growth estimate": "< -0.25"}, {"substance": "NEGRGAT", "growth estimate": "< -0.25"}, {"substance": "RWMRVQGDPEPREFNRFHRG", "growth estimate": "< -0.25"}]}]}
